PubChem BioAssay AID1259308 | NCATS, 2017

- Assay: 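Candidate targets for better recombinant protein yield in mammalian cells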 (primary screen)
- Cell system: human HEK293 embryonic kidney cells stably expressing firefly luciferase (HEK-CMV-Luc2-Hygro)
- Reagents: single siRNA against human genes, 0.8 pmol siRNA per well
- Time to read-out: 72 h
- Read-out: 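Luciferase light (ONE-Glo) measured on one replicate plate set and viability (CellTiter-Glo) on the other, scaled to a negative control siRNA, with robust z-scores and luciferase per cell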
- Reading the numbers: total luciferase, z-score and total luciferase, % of control: higher = more reporter protein produced; luciferase per cell, z-score: higher = more reporter output per viable cell; viable cells, % of control: higher = more viable cells
- Rule for the call: 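An siRNA counts as active if its total luciferase robust z-score exceeds 3; genes with two or more such siRNAs out of three were retested with fresh siRNAs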
- Calls: active = raised luciferase; inactive = no rise
This is one part, drawn at random, of about 59,000 reagents tested. In the full data, about 1,510 (2.6%) got an active call. 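Calls use total luciferase alone and ignore viability, so some active siRNAs may act by altering cell number.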 A number with no mark means an inactive call. Reagents against one gene are numbered here. No sequences are given here.

Target gene	reagent	total luciferase, z-score	total luciferase, % of control	luciferase per cell, z-score	viable cells, % of control
TGFB2	1	-1.4	54	-0.337	65.9
TGFB2	2	0.825	98.3	0.615	93.4
TGFB2	3	-1.1	60.1	0.126	64.9
RAB11FIP4	1	0.937	101	0.463	99.4
RAB11FIP4	2	-0.451	72.9	-0.841	102
RAB11FIP4	3	1.58	113	0.514	111
CFAP58	1	0.977	101	1.45	77.4
CFAP58	2	1.53	112	1.15	92.7
CFAP58	3	-1.03	61.4	-1.14	92.6
SLC38A6	1	-1.32	55.6	-1.6	94.6
SLC38A6	2	0.323	88.3	0.915	77.6
SLC38A6	3	2.52	132	1.52	98.9
PHKG1	1	-0.73	67.4	-0.969	97.1
PHKG1	2	-0.331	75.3	-1.01	110
PHKG1	3	0.0764	83.4	-0.342	102
MCM3AP	1	-0.911	63.8	-0.7	85.7
MCM3AP	2	0.194	85.7	0.088	93.6
MCM3AP	3	1.57	113	0.692	105
MRPL39	1	-0.736	67.3	-1.62	115
MRPL39	2	0.649	94.8	0.199	101
MRPL39	3	-0.986	62.3	-0.798	85.9
NT5DC3	1	-0.797	66	-0.816	91.5
NT5DC3	2	-0.2	77.9	-0.563	101
NT5DC3	3	-0.0901	80.1	-0.212	94.6
